Cleaved PARP after 72 h of treatment

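The test systems are human melanoma cell lines, treated with two drugs together for 72 h and then stained and imaged. Values are the share of nuclei positive for cleaved PARP as a percentage of the same share in the DMSO control: 100 is the control level, higher means more apoptosis. Every drug was used at one fixed concentration, the higher of two screened. The file gives one value for each pair and line, without errors, so small differences may be noise. Basal and induced levels differ widely between cell lines.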
This is part of the screen, not chosen by result.
An entry leaves out what has no value listed here.
A dash means that no value is listed here.

Drug key:
lestaurtinib: C[C@]12O[C@H](C[C@]1(O)CO)n1c3ccccc3c3c4c(c5c6ccccc6n2c5c31)CNC4=O at 0.02 µM
vatalanib: Clc1ccc(Nc2nnc(Cc3ccncc3)c3ccccc23)cc1 at 10 µM
SNS-032: CC(C)(C)c1cnc(CSc2cnc(NC(=O)C3CCNCC3)s2)o1 at 0.05 µM
YM155: COCC[n+]1c2c(n(Cc3cnccn3)c1C)C(=O)c1ccccc1C2=O at 0.002 µM
ENMD-2076: Cc1cc(Nc2cc(N3CCN(C)CC3)nc(/C=C/c3ccccc3)n2)n[nH]1 at 0.2 µM
cediranib: COc1cc2c(Oc3ccc4[nH]c(C)cc4c3F)ncnc2cc1OCCCN1CCCC1 at 2 µM
L-779450: Oc1cc(-c2nc(-c3ccccc3)[nH]c2-c2ccncc2)ccc1Cl at 1 µM
crizotinib: C[C@@H](Oc1cc(-c2cnn(C3CCNCC3)c2)cnc1N)c1c(Cl)ccc(F)c1Cl at 1 µM
bexarotene: C=C(c1ccc(C(=O)O)cc1)c1cc2c(cc1C)C(C)(C)CCC2(C)C at 10 µM

| Pair | WM1745 | SK-MEL-30 | WM3619 | 501mel | UACC-257 |
|---|---|---|---|---|---|
| ENMD-2076 + L-779450 | - | 180 | 126 | 131 | 35.0 |
| ENMD-2076 + SNS-032 | 429 | 58.1 | 142 | - | 36.3 |
| vatalanib + ENMD-2076 | 153 | 208 | 164 | - | 47.2 |
| cediranib + L-779450 | 209 | 104 | 129 | 80.5 | 15.6 |
| crizotinib + L-779450 | - | 186 | 133 | 150 | 36.8 |
| ENMD-2076 + crizotinib | 283 | 83.4 | 109 | - | 112 |
| cediranib + crizotinib | 107 | 159 | 106 | - | 114 |
| bexarotene + lestaurtinib | 110 | 128 | 113 | - | 38.5 |
| crizotinib + SNS-032 | 110 | 212 | 119 | - | 91.4 |
| cediranib + vatalanib | 181 | 97.0 | 140 | - | 37.9 |
| YM155 + SNS-032 | 111 | 332 | 234 | - | 1010 |
| L-779450 + vatalanib | - | 168 | 164 | 146 | 46.0 |
| YM155 + lestaurtinib | 106 | 81.0 | 434 | - | 346 |
| vatalanib + lestaurtinib | 124 | 106 | 144 | - | 235 |
| cediranib + ENMD-2076 | 415 | 80.0 | 125 | - | 36.0 |
| crizotinib + vatalanib | 159 | 112 | 156 | - | 82.3 |
| bexarotene + YM155 | 96.4 | 78.5 | 79.4 | - | 1160 |
| L-779450 + bexarotene | - | 58.3 | 102 | 164 | 56.2 |
| L-779450 + SNS-032 | 174 | 92.4 | 119 | 126 | 40.3 |
| YM155 + vatalanib | 143 | 22.9 | 131 | - | 76.1 |
| crizotinib + lestaurtinib | 125 | 92.5 | 118 | - | 104 |
| SNS-032 + cediranib | 133 | 218 | 99.3 | - | 204 |
| lestaurtinib + L-779450 | - | 106 | 119 | 220 | 31.4 |
| ENMD-2076 + bexarotene | 242 | 75.9 | 107 | - | 101 |
| YM155 + L-779450 | 164 | 107 | 155 | 60.5 | 653 |
| SNS-032 + bexarotene | 75.0 | 125 | 220 | - | 87.7 |
| SNS-032 + vatalanib | 213 | 203 | 268 | - | 112 |
| bexarotene + vatalanib | 133 | 55.0 | 118 | - | 118 |
| ENMD-2076 + lestaurtinib | 112 | 93.7 | 125 | - | 42.2 |
| cediranib + bexarotene | 180 | 91.6 | 77.6 | - | 40.8 |
| YM155 + cediranib | 86.4 | 204 | 82.7 | - | 2210 |
| YM155 + crizotinib | 128 | 127 | 106 | - | 2060 |
| YM155 + ENMD-2076 | 142 | 119 | 91.5 | - | 1290 |
| lestaurtinib + cediranib | 144 | 126 | 94.8 | - | 47.7 |
| crizotinib + bexarotene | 135 | 221 | 97.9 | - | 68.8 |

For reference, 3 entries once more:

* ENMD-2076 + L-779450 : SK-MEL-30: 180; WM3619: 126; 501mel: 131; UACC-257: 35.0
* cediranib + crizotinib : WM1745: 107; SK-MEL-30: 159; WM3619: 106; UACC-257: 114
* ENMD-2076 + bexarotene : WM1745: 242; SK-MEL-30: 75.9; WM3619: 107; UACC-257: 101

From a melanoma drug combination screen (doi:10.1371/journal.pone.0140310); values rounded.